The nature of this data set: Residual organic solvent by capillary gas chromatography. Type of data set: physicochemical. The method, then: The present invention relates to a novel crystal form of 5-hydroxy-1-methylhydantoin where there is substantially no residue of organic solvent. Here, the expression reading “substantially no residue of organic solvent” means that the residual organic solvent is not more than the detection limit (1 ppm) when the measurement is carried out according to a conventional method for the measurement of residual organic solvent such as a gas chromatography mentioned in “Test Method for Residual Solvent” of the Japanese Pharmacopoeia (14th edition).
In the following Examples, an example of process for the production of 5-hydroxy-1-methylhydantoin and its II-form crystals of the present invention will be described in more detail. […] Infrared absorption spectrum was measured by a potassium bromide disk method using Fourier-transform infrared spectrophotometer (Horiba) of FT-200 type. […] Melting point was measured using a melting point measuring apparatus (Yamato Kagaku) of MP-21 type. Nuclear magnetic resonance spectrum (^1H-NMR) was measured by a nuclear magnetic resonance apparatus (Bruker) of ARX-500 type by using TMS (δ=0) as an internal standard substance. […]
The residual organic solvent (acetone) in the resulting I-form crystals was measured by a capillary gas chromatography (Headspace method). […]

Values joined by “and” are separate entries in the source; they are usually repeats but may differ in a detail not shown here. Equal entries are not always repeated.

On to `CN1C(=O)NC(=O)C1O` (centres unmarked) [I-form crystals, 5-hydroxy-1-methylimidazolidin-2,4-dione], for which the “residual organic solvent (acetone)” value (Headspace method, 4 lots, crystals recrystallized from acetone (Reference Example 1)) was 1660±150 ppm and 1430±253 ppm and 1621±70 ppm and 1336±144 ppm.
`CN1C(=O)NC(=O)C1O` (centres unmarked) [II-form crystals, 5-hydroxy-1-methylimidazolidin-2,4-dione]: the “residual organic solvent used during purification such as acetone” value (direct injection method, detection limit 1 ppm, crystals recrystallized from water) is given as ≤ 1 ppm.

For the origin of these results see patent publication US7858806B2, “Crystal form of 5-hydroxy-1-methylhydantoin” (Nippon Zoki Pharmaceutical Co., Ltd., priority 2002, dated 2010).
